The record followed here is PMC4605306.

No constants are given. Whether binding was seen depends on the method and setting. Binding seen in cells or lysates may run through a third protein. Here binding means that the protein was enriched with, or labelled near, the bait; the list need not be complete.

The assay concerns the target Srp19-CBP-2xFLAG (Cryptococcus neoformans var. grubii H99). The experiment in a line: affinity purification with mass spectrometry; tandem affinity purification (anti-FLAG M2 resin, then calmodulin resin) of the CBP-2xFLAG-tagged bait from C. neoformans lysate; two replicates for each bait; hits filtered against a purification from an untagged wild-type strain.

B1: Srp72 (protein, UniProt J9VGD8 1-313)
chain: MAPPAKPTSTPKRKPFSPKPPRPAEERLPKLYRALTDQVDDGYFENAIKTCKKILALDASSQTAFQTLLFLHLQTDDYTSALSLLDHPSNEQSLDFERAYCLYRLHREKEALEVLKGLSEKGRKTDHLEAQILYRLGEYSQAQEIYEGMLADCDVSSPEHADIVTNLSATTAHLDFDTHGYHSHLSTTISSTSQTPMNTADLETIVPSLPTGWSSGGLAATVEKKTATVKAPEEKNERSRPRHKLPKGVVAGKEFTEDPERWIPFRQRLSYITAQSKKKGAKESMGTGFTQGSTGGHSAGSGGGGKSKKGKRK
Take B1: the binding entry is listed as “binds”.
